Source: paper PMC6436931, “Activation of the Endonuclease that Defines mRNA 3′ Ends Requires Incorporation into an 8-Subunit Core Cleavage and Polyadenylation Factor Complex” (Molecular Cell, 2019)
Construct, isoform or probe ends are uncertain for at least one entry. The comparison behind a weaker result is the experiment's own reference, which may not be listed here. Tags and fusion partners may be left off the protein sequences shown.

Target: T1, Hrp1 (CF IB) (Saccharomyces cerevisiae) (UniProt Q99383)
T1 sequence (looked up, limits assumed): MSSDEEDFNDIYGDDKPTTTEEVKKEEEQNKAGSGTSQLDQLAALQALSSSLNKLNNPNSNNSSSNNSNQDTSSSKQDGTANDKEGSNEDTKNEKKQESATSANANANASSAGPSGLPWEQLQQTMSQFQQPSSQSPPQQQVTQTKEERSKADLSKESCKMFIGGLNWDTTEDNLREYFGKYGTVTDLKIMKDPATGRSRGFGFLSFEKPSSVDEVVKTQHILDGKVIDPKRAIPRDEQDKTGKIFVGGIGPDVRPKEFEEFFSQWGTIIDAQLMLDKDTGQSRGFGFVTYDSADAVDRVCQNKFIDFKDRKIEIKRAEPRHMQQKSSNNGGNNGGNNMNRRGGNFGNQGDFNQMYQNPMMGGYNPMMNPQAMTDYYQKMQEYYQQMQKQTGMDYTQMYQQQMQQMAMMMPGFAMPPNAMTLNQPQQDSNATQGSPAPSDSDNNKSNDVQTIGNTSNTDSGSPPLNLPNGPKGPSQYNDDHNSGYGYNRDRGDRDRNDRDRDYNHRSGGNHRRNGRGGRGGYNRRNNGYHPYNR
Assay: EMSA
Details: EMSA: 50 nM RNA, 0.25-4.0 uM protein, protein diluted in 10 mM HEPES pH 7.9, 150 mM NaCl, 0.5 mM Mg(OAc)2, plus 1x loading dye (orange G, glycerol, EDTA); 30 min on ice; recombinant protein; protein details: 6H (6H-Hrp1); label: 5'-FAM

AAAAAAAAAAAAAAA [A15]: binds more weakly.
